These results are taken from PubChem BioAssay AID445 (National Center for Advancing Translational Sciences (NCATS), 2006).

The other results are listed elsewhere or left out. Shown are side measurements of this screen, not its main read-out; they come without a call. Compounds called inactive in the main read-out are mostly missing here. Potencies come from curve fits of mixed quality, noted in brackets.

A word on the AC50: it is the midpoint of the concentration-response curve, whichever way the signal moves.

This experiment is described as follows: IkB Signaling. Particulars: ABC-DLBCL IkBa-CBG/CBR dual luciferase ratio (green luciferase fused to IkBa over red control in OCI-Ly3 lymphoma cells), 4 h; measured here: control luc red channel unless noted. The procedure, abridged:
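Curves were fitted separately to fusion (green), unfused (red) and ratio luminescence, then classed by r2, magnitude and activity. Cells: OCI-Ly3, 4 h compound plus doxycycline at 37C; 10 uM MG-132 defined full response.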
`CCOC(=O)c1c(-c2ccc(OC)c(OC)c2)csc1NC(=O)c1ccc(C)cc1`: the AC50 was 12.6 µM [falling, partial curve].

Take `O=C(NCc1ccc(F)cc1)c1cc2cccc3c2n1CCS3`: the AC50 was 25.1 µM [falling, single point].

As to `COc1ccc(S(=O)(=O)N(CC(=O)NCCSc2ccccc2)c2ccc(C)cc2)cc1`, the AC50 is 3.98 µM [falling, full curve].

Consider `CCOC(=O)c1cc(-c2ccccc2)n(CCC(=O)NCCc2cccc(C)c2)c1C`, for which the AC50 is 25.1 µM [falling, single point].

For the compound `CCOc1ccccc1CNC(=O)CCC(=O)N1CCSc2ccccc21`, the AC50 was 20 µM [falling, partial curve].

Turning to `CCCN(CCC)C(=O)CSc1c2c(nc3ccc(Cl)cc13)CCCC2`, the concentration at half-maximal activity (AC50) is 10 µM [falling, partial curve].

As to `O=C(c1cc(-c2ccccc2O)on1)N1CCCC1`, the AC50 is 6.31 µM [falling, partial curve].

Take `Cc1ccc(S(=O)(=O)N2CCCC2C(=O)Nc2nc3ccccc3s2)cc1` (stereo unspecified): the AC50 was 15.8 µM [falling, partial curve].

Turning to `Cc1ccc(C)c(NC(=O)C(Cc2ccccc2)n2cccc2)c1` (stereo unspecified), the AC50 is 20 µM [falling, single point].

With `COc1ccc(OC)c(NC(=O)Cn2c(=O)n(Cc3ccco3)c(=O)c3cc(OC)c(OC)cc32)c1`, the AC50 is 5.01 µM [falling, partial curve].

In the case of `Brc1ccc(Nc2c3c(nc4nncn24)CCC3)cc1`, the AC50 was 31.6 µM [rising, single point].

Turning to `COc1ccc(Nc2nnc(-c3ccc(C)c(S(=O)(=O)NCc4nc5ccccc5[nH]4)c3)c3ccccc23)cc1`, the AC50 was 6.31 µM [falling, partial curve].

As for `Cc1ccc(NC(=O)Cn2nnc(C(=O)NCCc3ccccc3)c2N)cc1`, the AC50 was 20 µM [falling, single point].

Consider `O=C(NCc1ccc(Cl)cc1)c1ccc2c(c1)NC(=O)C(CS(=O)(=O)Cc1ccc(F)cc1Cl)N2` (stereo unspecified), for which the AC50 was 15.8 µM [falling, partial curve, poor fit].

`O=C(COC(=O)c1ccc(Br)o1)Nc1nc2ccccc2s1`: the AC50 was 12.6 µM [falling, partial curve].

With `COc1ccc(C)cc1NC(=O)c1cc2ccccn2n1`, the AC50 was 0.251 µM [rising, full curve].

In the case of `CCc1ccc(NC(=O)C2CCCN(S(=O)(=O)c3cccc4nsnc34)C2)cc1` (stereo unspecified), the half-maximal activity concentration (AC50) was 31.6 µM [falling, single point].

As for `CCN(C(=O)CCc1nc(-c2ccc(C)cc2)no1)c1cccc(Cl)c1`, the AC50 was 25.1 µM [falling, partial curve].

As for `COC(=O)c1cc2sccc2n1CC(=O)Nc1ccc(C)cc1C`, the AC50 was 3.98 µM [rising, partial curve].

`CC(C)C[C@H](N)c1nnc(S(=O)(=O)Cc2ccc(F)cc2)o1`: the half-maximal activity concentration (AC50) was 10 µM [falling, partial curve].

On to `COc1ccc(-c2cc(C(=O)Nc3cnn(Cc4ccccc4C)c3)no2)cc1OC`, for which the AC50 was 3.98 µM [falling, partial curve].

As for `COc1cccc(CNC(=O)c2ccc3nc(-c4ccccc4)c(-c4ccccc4)nc3c2)c1OC`, the AC50 is 7.94 µM [falling, partial curve].

`CCC1CCCCN1C(=O)CSc1nnc(-c2c[nH]c3ccccc23)o1` (stereo unspecified): the AC50 is 31.6 µM [falling, single point].

Turning to `Cc1cc(C)n(-c2nc3ccccc3n3nnnc23)n1`, the AC50 was 3.98 µM [falling, partial curve].

Take `CCc1nnc(SCc2nc(-c3cccc(Cl)c3)oc2C)c2cc3sc(C)cc3n12`: the AC50 was 0.501 µM [rising, full curve].

As for `O=C1CN(C(=O)CCCc2c[nH]c3ccccc23)c2ccccc2N1`, the AC50 is 25.1 µM [falling, partial curve].

Consider `COc1ccc(Cl)cc1NC(=O)CCn1c(=O)c2cccn2c2ccccc21`, for which the AC50 is 12.6 µM [falling, partial curve].

Consider `Cc1ccccc1C(=O)NCc1nc(-c2ccc(Cl)cc2)no1`, for which the AC50 is 0.794 µM [rising, full curve].

In the case of `Cc1ccc(NC(=O)c2c(C)nc3sc(C(=O)Nc4ccc(F)cc4)c(N)c3c2-c2ccc(Cl)cc2)c(C)c1`, the AC50 was 3.16 µM [falling, partial curve].

With `Cc1cccc(CN2C(=O)c3ccccc3S(=O)(=O)c3ccc(C(=O)N(C)Cc4ccccc4)cc32)c1`, the AC50 is 10 µM [falling, partial curve].

In the case of `OC(c1cccc(OCc2ccccc2)c1)c1nnc(-c2ccccc2)o1` (stereo unspecified), the AC50 is 20 µM [falling, partial curve].

As to `Cc1ccc(Nc2c(-c3ccc(N4CCOCC4)cc3)nc3cccc(C)n23)cc1`, the AC50 was 0.0501 µM [falling, full curve, poor fit].

In the case of `COc1cc2c(cc1OC)-c1cc(Nc3ccc4c(c3)OCCO4)nc(=O)n1CC2`, the AC50 is 2 µM [falling, full curve].

With `CCC1C(O)=C(c2ccccn2)C(=N)N1c1ccccc1` (stereo unspecified), the AC50 is 1.58 µM [falling, full curve, poor fit].

Consider `CCOC(=O)c1ccc(NC2(c3ccccc3)C(=O)c3ccccc3C2=O)cc1`, for which the AC50 is 20 µM [falling, single point].

For the compound `COc1cccc(Cn2c(Oc3cccc(C)c3)nc3c2c(=O)n(C)c(=O)n3C)c1`, the AC50 was 25.1 µM [falling, partial curve].

Regarding `CCOC(=O)c1ccc(NC(=O)c2sc3ccccc3c2Cl)cc1`, the AC50 was 0.0316 µM [falling, full curve].

Regarding `Cc1ccc(-c2cc(-c3ccc(Cl)cc3)c(C#N)c(N)n2)o1`, the AC50 is 10 µM [falling, partial curve].

`O=c1c2ccccc2n(Cc2cccc(Cl)c2)c(=O)n1CCc1ccccc1`: the AC50 is 39.8 µM [falling, single point].

Take `CC(=O)NCCc1nc2ccccc2n1CCCCOc1ccc(Cl)cc1`: the concentration at half-maximal activity (AC50) was 15.8 µM [falling, partial curve].

Consider `COc1cccc2cc(-c3nc4sc(C(=O)Nc5ccc(F)cc5F)c(C)c4c(=O)[nH]3)c(=O)oc12`, for which the AC50 is 5.01 µM [rising, partial curve].
